# Results from the supplement of paper PMC6411743.
# Sequences of proteins named here, by UniProt entry; tags and fusion partners are left off. A change or cut given only in a name is not applied to a line headed by its entry.
# UniProt O43795: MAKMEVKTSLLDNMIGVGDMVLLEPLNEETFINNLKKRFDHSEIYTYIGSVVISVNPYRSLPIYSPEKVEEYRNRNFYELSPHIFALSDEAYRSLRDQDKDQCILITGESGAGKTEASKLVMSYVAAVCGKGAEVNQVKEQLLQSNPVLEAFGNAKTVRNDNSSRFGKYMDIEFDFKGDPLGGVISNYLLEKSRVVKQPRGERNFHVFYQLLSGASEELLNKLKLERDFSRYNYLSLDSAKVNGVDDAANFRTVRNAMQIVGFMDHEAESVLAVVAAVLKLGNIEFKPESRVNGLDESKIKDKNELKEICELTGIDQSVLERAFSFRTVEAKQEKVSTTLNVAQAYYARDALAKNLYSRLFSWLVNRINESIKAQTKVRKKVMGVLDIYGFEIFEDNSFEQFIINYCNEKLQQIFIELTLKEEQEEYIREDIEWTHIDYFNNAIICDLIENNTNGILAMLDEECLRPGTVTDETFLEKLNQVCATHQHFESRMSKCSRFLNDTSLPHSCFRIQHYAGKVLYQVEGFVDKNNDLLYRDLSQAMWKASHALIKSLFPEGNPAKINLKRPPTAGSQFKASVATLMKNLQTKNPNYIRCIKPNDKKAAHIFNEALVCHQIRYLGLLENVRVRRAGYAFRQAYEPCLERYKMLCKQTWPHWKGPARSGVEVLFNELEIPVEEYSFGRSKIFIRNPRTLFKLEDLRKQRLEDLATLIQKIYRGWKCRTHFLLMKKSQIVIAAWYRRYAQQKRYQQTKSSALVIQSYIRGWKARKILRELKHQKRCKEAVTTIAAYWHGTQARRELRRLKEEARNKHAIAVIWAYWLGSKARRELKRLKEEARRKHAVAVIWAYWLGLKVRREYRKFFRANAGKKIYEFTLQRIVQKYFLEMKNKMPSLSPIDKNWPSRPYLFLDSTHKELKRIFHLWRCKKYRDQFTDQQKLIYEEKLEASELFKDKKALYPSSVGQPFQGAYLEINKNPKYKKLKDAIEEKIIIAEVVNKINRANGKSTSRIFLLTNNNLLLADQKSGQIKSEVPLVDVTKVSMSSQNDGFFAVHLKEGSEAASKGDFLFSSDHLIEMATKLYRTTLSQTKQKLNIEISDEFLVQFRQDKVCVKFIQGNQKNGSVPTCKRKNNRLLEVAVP
# UniProt O00750: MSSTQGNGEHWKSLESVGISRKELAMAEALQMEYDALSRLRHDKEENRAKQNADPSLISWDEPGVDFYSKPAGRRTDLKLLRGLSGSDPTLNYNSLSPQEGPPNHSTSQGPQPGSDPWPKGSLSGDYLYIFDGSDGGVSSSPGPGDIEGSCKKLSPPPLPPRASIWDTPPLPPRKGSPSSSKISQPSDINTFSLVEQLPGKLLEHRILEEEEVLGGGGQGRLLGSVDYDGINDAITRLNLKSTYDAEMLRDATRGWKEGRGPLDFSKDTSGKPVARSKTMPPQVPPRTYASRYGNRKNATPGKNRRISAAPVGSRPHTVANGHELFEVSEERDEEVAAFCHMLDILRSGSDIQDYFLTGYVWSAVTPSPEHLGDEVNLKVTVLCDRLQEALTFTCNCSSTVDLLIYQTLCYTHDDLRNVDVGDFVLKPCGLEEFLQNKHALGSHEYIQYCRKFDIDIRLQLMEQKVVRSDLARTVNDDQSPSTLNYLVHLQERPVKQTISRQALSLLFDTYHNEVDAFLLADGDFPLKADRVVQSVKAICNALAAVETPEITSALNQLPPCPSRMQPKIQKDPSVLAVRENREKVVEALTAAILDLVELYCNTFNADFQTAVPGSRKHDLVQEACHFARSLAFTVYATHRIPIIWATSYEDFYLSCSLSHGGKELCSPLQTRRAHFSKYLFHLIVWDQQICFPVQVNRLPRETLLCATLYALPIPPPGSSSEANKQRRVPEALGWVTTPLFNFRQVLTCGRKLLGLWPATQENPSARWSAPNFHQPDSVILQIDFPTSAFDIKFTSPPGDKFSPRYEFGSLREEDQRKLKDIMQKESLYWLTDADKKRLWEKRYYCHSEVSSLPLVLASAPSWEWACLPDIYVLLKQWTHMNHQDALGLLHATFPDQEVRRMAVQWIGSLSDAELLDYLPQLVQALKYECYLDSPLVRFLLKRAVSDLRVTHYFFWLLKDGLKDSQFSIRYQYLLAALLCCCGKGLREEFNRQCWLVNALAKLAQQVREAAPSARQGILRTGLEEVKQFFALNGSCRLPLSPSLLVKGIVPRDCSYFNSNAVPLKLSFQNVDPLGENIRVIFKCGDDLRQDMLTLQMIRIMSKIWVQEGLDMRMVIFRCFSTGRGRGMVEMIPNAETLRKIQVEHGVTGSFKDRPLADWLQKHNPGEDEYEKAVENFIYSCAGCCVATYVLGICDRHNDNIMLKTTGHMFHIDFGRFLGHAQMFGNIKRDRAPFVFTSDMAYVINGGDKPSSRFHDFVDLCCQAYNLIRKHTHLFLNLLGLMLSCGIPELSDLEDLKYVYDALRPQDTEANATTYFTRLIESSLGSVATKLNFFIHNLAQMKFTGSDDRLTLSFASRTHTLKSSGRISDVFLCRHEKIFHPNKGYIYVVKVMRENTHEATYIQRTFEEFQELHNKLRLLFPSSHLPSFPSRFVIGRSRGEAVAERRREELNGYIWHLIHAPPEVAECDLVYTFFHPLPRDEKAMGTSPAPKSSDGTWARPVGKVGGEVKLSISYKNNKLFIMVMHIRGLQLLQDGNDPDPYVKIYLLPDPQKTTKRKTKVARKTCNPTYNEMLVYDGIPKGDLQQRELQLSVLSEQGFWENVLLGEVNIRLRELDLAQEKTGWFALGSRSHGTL
# UniProt Q9GZN1, whole entry: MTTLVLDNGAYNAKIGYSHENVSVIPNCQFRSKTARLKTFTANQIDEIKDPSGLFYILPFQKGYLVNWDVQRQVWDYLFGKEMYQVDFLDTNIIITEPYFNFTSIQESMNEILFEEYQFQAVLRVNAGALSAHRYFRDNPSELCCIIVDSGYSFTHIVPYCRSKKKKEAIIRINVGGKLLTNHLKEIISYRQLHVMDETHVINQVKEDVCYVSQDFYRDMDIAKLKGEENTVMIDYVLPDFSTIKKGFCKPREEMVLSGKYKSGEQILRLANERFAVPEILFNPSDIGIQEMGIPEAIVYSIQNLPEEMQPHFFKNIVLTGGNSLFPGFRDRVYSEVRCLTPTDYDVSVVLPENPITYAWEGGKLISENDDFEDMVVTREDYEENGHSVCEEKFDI
# UniProt Q6P1N9: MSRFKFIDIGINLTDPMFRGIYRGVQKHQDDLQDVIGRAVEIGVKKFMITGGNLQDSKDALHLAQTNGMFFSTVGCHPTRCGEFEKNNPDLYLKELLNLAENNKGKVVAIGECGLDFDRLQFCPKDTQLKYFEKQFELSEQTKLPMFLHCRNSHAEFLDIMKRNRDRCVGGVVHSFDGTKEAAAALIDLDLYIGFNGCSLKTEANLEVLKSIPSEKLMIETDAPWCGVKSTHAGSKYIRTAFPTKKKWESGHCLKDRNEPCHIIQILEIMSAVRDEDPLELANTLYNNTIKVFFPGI
# UniProt Q96S38: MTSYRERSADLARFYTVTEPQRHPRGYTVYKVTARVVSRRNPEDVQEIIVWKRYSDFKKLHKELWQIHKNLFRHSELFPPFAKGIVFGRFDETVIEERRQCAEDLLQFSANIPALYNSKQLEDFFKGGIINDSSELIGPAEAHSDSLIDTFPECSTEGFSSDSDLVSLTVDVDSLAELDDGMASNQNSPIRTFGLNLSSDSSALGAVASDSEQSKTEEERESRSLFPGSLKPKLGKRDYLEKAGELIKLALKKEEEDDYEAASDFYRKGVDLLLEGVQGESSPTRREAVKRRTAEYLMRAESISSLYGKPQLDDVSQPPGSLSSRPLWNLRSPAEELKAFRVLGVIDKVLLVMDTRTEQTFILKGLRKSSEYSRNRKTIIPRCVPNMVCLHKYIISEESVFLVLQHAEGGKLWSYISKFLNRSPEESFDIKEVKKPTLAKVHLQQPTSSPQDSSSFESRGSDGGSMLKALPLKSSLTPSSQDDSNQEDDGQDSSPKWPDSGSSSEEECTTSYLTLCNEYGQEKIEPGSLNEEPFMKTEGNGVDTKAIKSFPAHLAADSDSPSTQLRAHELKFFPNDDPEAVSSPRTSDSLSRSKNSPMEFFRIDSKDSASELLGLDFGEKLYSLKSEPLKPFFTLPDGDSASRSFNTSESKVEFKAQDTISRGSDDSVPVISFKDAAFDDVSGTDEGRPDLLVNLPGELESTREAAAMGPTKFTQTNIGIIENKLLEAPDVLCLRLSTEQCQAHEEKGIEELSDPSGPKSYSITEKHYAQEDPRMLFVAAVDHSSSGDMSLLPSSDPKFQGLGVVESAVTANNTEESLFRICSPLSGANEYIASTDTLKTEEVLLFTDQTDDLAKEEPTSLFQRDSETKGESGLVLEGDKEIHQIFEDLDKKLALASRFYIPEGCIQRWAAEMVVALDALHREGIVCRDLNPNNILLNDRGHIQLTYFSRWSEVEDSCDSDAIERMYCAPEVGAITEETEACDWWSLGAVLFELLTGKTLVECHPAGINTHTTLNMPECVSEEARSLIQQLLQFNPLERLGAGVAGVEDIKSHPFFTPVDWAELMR
# UniProt P04406: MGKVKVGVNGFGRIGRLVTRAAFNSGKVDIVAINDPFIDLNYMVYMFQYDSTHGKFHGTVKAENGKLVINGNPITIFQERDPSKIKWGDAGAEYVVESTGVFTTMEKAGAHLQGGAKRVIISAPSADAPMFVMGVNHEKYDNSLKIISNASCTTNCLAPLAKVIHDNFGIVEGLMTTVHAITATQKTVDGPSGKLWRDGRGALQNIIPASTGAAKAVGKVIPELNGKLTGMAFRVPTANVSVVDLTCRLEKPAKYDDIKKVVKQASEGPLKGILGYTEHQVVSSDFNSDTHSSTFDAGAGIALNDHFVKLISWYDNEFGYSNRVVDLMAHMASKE
# UniProt Q567U6, whole entry: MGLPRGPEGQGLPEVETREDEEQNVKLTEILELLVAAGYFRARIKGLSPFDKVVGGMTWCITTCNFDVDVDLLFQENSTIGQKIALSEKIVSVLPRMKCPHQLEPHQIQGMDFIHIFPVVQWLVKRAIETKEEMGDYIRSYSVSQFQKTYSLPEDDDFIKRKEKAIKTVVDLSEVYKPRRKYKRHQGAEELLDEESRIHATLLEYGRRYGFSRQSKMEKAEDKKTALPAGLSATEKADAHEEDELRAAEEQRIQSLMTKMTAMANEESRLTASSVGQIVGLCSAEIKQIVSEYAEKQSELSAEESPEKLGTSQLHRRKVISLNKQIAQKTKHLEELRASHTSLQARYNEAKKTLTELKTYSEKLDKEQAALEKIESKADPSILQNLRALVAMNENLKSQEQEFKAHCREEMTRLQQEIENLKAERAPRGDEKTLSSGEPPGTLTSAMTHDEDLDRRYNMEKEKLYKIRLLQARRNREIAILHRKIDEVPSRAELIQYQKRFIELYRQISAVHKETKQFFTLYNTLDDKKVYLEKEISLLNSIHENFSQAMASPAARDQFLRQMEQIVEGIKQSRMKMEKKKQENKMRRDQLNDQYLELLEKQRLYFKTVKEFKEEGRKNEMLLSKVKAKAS
# UniProt P24752: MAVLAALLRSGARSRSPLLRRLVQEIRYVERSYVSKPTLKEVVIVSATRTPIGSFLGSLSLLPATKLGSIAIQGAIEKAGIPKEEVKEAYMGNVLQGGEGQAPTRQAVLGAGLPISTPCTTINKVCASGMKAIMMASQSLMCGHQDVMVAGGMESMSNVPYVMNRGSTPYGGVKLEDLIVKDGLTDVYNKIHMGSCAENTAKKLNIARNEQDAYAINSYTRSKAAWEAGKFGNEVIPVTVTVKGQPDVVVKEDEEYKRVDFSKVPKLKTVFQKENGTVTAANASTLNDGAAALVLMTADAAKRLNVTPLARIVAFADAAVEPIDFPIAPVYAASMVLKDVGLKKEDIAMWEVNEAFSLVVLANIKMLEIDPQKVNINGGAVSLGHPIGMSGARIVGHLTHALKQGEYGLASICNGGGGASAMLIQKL
# UniProt Q6UW02: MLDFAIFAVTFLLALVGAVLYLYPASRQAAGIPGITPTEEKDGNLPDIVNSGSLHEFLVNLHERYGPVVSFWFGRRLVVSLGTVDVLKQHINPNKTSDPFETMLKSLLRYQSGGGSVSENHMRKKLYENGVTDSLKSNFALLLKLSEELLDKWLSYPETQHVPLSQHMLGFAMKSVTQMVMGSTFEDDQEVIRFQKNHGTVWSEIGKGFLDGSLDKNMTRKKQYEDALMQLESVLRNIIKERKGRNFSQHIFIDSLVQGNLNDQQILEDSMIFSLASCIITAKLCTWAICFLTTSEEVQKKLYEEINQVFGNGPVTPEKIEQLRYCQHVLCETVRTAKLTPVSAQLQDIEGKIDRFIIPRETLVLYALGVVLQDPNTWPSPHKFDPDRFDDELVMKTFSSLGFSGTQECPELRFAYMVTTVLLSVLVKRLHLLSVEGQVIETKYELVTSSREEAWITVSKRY
# ± gives the standard deviation of the averaged measurements. The list shows a part of the results, in another mix than the full data. Most entries show no effect beyond the scatter of the controls.
# Compound: Nc1ncnc2c1ncn2[C@@H]1O[C@H](COP(=O)(O)OP(=O)(O)OP(=O)(O)O)[C@@H](O)[C@H]1O [adenosine triphosphate]
# Assay: NP40-soluble protein abundance relative to vehicle (solubility fold change) (ratio); higher = more soluble protein in presence of ATP
# Summary of the method: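 Eight concentrations, 0.1 to 10 mM, were tested on Jurkat crude lysate for 10 min at room temperature and then 3 min at 37 °C, in three independent experiments. The lysate was solubilised with 0.8% NP40 and benzonase, ultracentrifuged, and the supernatant TMT-labelled for LC-MS/MS. Each value is the fold change against the detergent-processed vehicle in its own replicate, from vsn-normalised intensities.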
Target,NP40-soluble protein abundance (concentration: 0.1mM),NP40-soluble protein abundance (concentration: 0.5mM),NP40-soluble protein abundance (concentration: 1mM),NP40-soluble protein abundance (concentration: 2mM),NP40-soluble protein abundance (concentration: 4mM),NP40-soluble protein abundance (concentration: 6mM),NP40-soluble protein abundance (concentration: 8mM),NP40-soluble protein abundance (concentration: 10mM)
F5H1D6 and related entries (UniProt Q07864),1.1 ± 0.053,1.04 ± 0.041,,,,,,
E9PDF6 and related entries (UniProt O43795),1.13 ± 0.043,2.71 ± 0.17,2.78 ± 0.047,2.71 ± 0.065,2.65 ± 0.15,2.65 ± 0.21,2.82 ± 0.17,2.67 ± 0.12
E9PJA7 and related entries (UniProt Q9NYF8),1.03 ± 0.017,1.19 ± 0.032,1.31 ± 0.092,1.41 ± 0.056,1.54 ± 0.086,1.7 ± 0.11,1.65 ± 0.07,1.7 ± 0.06
E9PL53 and related entries (UniProt Q96ER3),0.98 ± 0.036,0.964 ± 0.023,0.966 ± 0.034,0.9715 ± 0.0057,0.951 ± 0.013,0.997 ± 0.019,0.9485 ± 0.0047,0.925 ± 0.011
F5GWN5 and related entries (UniProt O00750),1.02 ± 0.035,1.01 ± 0.057,0.994 ± 0.022,1.03 ± 0.025,1.05 ± 0.013,1.02 ± 0.039,1.03 ± 0.028,1.03 ± 0.051
F8W057 and related entries (UniProt Q9GZN1),1.02 ± 0.083,1.08 ± 0.063,1.07 ± 0.034,1.11 ± 0.034,1.1 ± 0.065,1.03 ± 0.089,1.2 ± 0.028,1.17 ± 0.089
F5H514 and related entries (UniProt O95267),0.914 ± 0.04,1.07 ± 0.11,1.04 ± 0.12,1.09 ± 0.046,1.19 ± 0.15,1.21 ± 0.13,1.14 ± 0.065,1.24 ± 0.15
E7EX59 and related entries (UniProt P05166),1 ± 0.019,1.03 ± 0.025,0.992 ± 0.049,0.971 ± 0.02,0.968 ± 0.012,0.973 ± 0.046,0.998 ± 0.033,0.979 ± 0.03
F8W060 and related entries (UniProt Q9BZF1),1.01 ± 0.031,0.998 ± 0.045,0.936 ± 0.018,0.933 ± 0.035,0.939 ± 0.018,0.927 ± 0.046,0.964 ± 0.013,0.959 ± 0.045
E7EVA8 and related entries (UniProt Q9BY41),1.05 ± 0.08,1.07 ± 0.14,,,,,,
E5RG17 and related entries (UniProt Q6P1N9),1 ± 0.032,1.03 ± 0.047,0.989 ± 0.02,0.974 ± 0.013,0.965 ± 0.02,0.963 ± 0.052,0.937 ± 0.019,0.968 ± 0.019
F5H7T0 and related entries (UniProt Q96S38),0.994 ± 0.11,0.975 ± 0.074,,,,,,
E9PGT1 (UniProt Q15631),0.993 ± 0.033,0.961 ± 0.03,,,,,,
UniProt E9PSI1,1.01 ± 0.052,1.01 ± 0.015,0.9713 ± 0.0047,0.986 ± 0.015,0.981 ± 0.015,0.939 ± 0.037,0.958 ± 0.044,0.96 ± 0.04
E7EUT5 and related entries (UniProt P04406),1.07 ± 0.018,0.994 ± 0.065,1.01 ± 0.012,0.959 ± 0.074,0.9969 ± 0.0069,0.939 ± 0.043,0.954 ± 0.024,0.944 ± 0.059
E9PLK3 and related entries (UniProt P55786),1.05 ± 0.09,1.05 ± 0.086,1.02 ± 0.12,0.997 ± 0.09,0.976 ± 0.065,0.927 ± 0.13,0.999 ± 0.073,0.974 ± 0.057
F8W9X7 and related entries (UniProt Q567U6),0.992 ± 0.013,0.996 ± 0.032,0.974 ± 0.012,0.962 ± 0.017,0.959 ± 0.024,0.935 ± 0.015,0.951 ± 0.016,0.943 ± 0.028
F5H7W8 and related entries (UniProt Q96C57),0.953 ± 0.095,0.992 ± 0.079,,,,,,
E9PJN1 and related entries (UniProt O75676),1.31 ± 0.29,1.38 ± 0.15,1.36 ± 0.22,2.6 ± 1.5,1.34 ± 0.17,1.35 ± 0.17,1.31 ± 0.26,1.38 ± 0.13
E9PKF3 and related entries (UniProt P24752),0.988 ± 0.022,1.01 ± 0.053,,,,,,
E9PHG5 and related entries (UniProt Q6UW02),1.07 ± 0.19,1.1 ± 0.17,1.11 ± 0.13,1.02 ± 0.16,1.04 ± 0.13,1.02 ± 0.17,1.02 ± 0.1,0.993 ± 0.086
E9PEB9 and related entries (UniProt Q03001),0.998 ± 0.088,0.911 ± 0.048,0.92 ± 0.1,0.924 ± 0.041,0.942 ± 0.081,0.959 ± 0.15,0.899 ± 0.09,0.968 ± 0.056
G3XAC1 and related entries (UniProt Q9BXS9),0.964 ± 0.031,0.935 ± 0.07,0.909 ± 0.018,0.891 ± 0.037,0.918 ± 0.073,0.885 ± 0.022,0.867 ± 0.074,0.863 ± 0.071
F6S7C4 and related entries (UniProt Q8NEM7),1.01 ± 0.026,1.07 ± 0.078,1.09 ± 0.12,1.15 ± 0.1,1.14 ± 0.093,1.12 ± 0.13,1.16 ± 0.093,1.2 ± 0.11
E9PRR0 and related entries (UniProt O95831),1.04 ± 0.07,1.05 ± 0.049,,,,,,
E7EQI7 and related entries (UniProt Q12768),1.05 ± 0.061,1.07 ± 0.095,1.06 ± 0.1,1.06 ± 0.075,1.05 ± 0.076,0.962 ± 0.11,1.07 ± 0.068,1.02 ± 0.05

# Two successive entries out of the list so far, quoted:
Target,NP40-soluble protein abundance (concentration: 0.1mM),NP40-soluble protein abundance (concentration: 0.5mM),NP40-soluble protein abundance (concentration: 1mM),NP40-soluble protein abundance (concentration: 2mM),NP40-soluble protein abundance (concentration: 4mM),NP40-soluble protein abundance (concentration: 6mM),NP40-soluble protein abundance (concentration: 8mM),NP40-soluble protein abundance (concentration: 10mM)
E9PRR0 and related entries (UniProt O95831),1.04 ± 0.07,1.05 ± 0.049,,,,,,
E7EQI7 and related entries (UniProt Q12768),1.05 ± 0.061,1.07 ± 0.095,1.06 ± 0.1,1.06 ± 0.075,1.05 ± 0.076,0.962 ± 0.11,1.07 ± 0.068,1.02 ± 0.05
